Laboratory results from article PMC5411712.
Results are given in words; binding and its absence hold for the method and conditions named. For some assays here: In cells and extracts the contact can be indirect. Some binding calls cover weakened binding; strength is not graded here. For some assays here: Tags and fused reporters may be left off the sequences shown.

Chains of the proteins cited; added tags and fusions are not shown.
UniProt P60484: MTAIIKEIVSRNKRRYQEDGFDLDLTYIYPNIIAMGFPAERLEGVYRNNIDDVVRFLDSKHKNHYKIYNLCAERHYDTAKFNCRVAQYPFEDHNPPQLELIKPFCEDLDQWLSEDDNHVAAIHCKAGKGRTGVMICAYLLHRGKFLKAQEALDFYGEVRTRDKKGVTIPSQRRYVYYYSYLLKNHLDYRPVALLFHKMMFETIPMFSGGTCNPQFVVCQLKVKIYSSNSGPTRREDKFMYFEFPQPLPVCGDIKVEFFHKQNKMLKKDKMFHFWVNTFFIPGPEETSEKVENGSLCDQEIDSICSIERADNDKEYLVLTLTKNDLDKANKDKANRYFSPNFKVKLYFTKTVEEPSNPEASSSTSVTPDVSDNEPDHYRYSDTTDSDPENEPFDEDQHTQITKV
UniProt O08586: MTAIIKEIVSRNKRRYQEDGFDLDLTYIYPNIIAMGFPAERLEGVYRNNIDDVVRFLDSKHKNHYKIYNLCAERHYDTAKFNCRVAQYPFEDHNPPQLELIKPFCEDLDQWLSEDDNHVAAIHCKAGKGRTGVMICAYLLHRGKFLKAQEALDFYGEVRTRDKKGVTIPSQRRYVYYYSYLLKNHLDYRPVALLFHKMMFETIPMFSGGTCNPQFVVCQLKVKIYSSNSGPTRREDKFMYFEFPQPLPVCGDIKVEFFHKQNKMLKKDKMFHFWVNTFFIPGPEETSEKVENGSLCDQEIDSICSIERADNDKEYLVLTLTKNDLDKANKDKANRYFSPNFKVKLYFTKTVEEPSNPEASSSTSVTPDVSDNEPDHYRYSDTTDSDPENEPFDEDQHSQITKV

Experiments:
[1] = target: PTEN, endogenous in human aortic smooth muscle cells (human (endogenous in human aortic SMCs)) (UniProt P60484); experiment: co-IP; endogenous proteins in whole cell lysates (mPER buffer) of cultured human or rat aortic SMCs serum-restricted 48 h; IP with anti-PTEN, anti-SRF, anti-myocardin or anti-Elk-1 and protein A-Sepharose, 16-18 h 4 °C; immunoblot; non-specific IgG as control; in SMCs with PTEN shRNA (Fig. 4c) less SRF with myocardin
[2] = target: T1, myocardin, endogenous in smooth muscle cells (rat (endogenous in rat aortic SMCs)), Q8R5I7; experiment: as above; settings: remark: other sources report otherwise
T1 chain: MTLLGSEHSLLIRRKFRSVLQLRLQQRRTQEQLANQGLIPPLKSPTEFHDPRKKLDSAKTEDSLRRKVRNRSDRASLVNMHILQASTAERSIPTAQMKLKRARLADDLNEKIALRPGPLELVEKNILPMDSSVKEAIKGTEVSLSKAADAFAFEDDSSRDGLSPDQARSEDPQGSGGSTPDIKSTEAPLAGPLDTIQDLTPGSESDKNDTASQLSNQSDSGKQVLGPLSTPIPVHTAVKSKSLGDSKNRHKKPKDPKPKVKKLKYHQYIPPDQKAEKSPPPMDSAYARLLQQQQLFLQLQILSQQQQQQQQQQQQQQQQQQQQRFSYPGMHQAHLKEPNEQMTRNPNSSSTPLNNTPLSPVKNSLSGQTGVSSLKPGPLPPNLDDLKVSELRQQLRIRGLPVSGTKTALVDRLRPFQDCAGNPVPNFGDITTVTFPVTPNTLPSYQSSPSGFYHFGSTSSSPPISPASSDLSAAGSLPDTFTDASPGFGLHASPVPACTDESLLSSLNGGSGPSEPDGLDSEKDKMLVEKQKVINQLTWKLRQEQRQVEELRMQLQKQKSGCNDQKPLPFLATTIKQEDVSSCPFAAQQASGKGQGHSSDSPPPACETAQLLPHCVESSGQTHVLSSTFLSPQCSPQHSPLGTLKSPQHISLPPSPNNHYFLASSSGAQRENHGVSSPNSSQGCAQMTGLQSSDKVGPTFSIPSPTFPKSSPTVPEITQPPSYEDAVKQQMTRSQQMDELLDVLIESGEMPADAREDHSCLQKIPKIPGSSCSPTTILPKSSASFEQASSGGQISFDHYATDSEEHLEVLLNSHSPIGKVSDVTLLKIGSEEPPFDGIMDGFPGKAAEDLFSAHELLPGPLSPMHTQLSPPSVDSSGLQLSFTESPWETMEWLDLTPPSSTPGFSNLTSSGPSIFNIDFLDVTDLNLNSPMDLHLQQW

[3] = target: PTEN, endogenous in mouse cells and tissue (mouse (endogenous in L929 fibroblasts and mouse aortic media)) (UniProt O08586); experiment: co-IP; L929 fibroblasts; SRF immunoprecipitated with PTEN
[4] = target: PTEN, endogenous in mouse cells and tissue (mouse (endogenous in L929 fibroblasts and mouse aortic media)) (UniProt O08586); experiment: co-IP; whole cell lysates of smooth muscle-rich aortic media of wild-type mice; PTEN immunoprecipitated, SRF immunoblotted
recombinant His6-PTEN = recombinant His6-PTEN (UniProt P60484); experiment: co-IP; in vitro: purified recombinant PTEN and SRF incubated together in Tris buffer (10 mM Tris-HCl pH 8.0, 100 mM NaCl, 10% glycerol, 2 mM MgCl2, 1 mM EDTA, 1 mM DTT, 100 ug/ml BSA); IP with anti-PTEN or anti-SRF 16-18 h 4 °C, protein A-Sepharose; immunoblot; both purified

B1: serum response factor (SRF), endogenous in human aortic smooth muscle cells (protein, UniProt P11831 1-508)
chain: MLPTQAGAAAALGRGSALGGSLNRTPTGRPGGGGGTRGANGGRVPGNGAGLGPGRLEREAAAAAATTPAPTAGALYSGSEGDSESGEEEELGAERRGLKRSLSEMEIGMVVGGPEASAAATGGYGPVSGAVSGAKPGKKTRGRVKIKMEFIDNKLRRYTTFSKRKTGIMKKAYELSTLTGTQVLLLVASETGHVYTFATRKLQPMITSETGKALIQTCLNSPDSPPRSDPTTDQRMSATGFEETDLTYQVSESDSSGETKDTLKPAFTVTNLPGTTSTIQTAPSTSTTMQVSSGPSFPITNYLAPVSASVSPSAVSSANGTVLKSTGSGPVSSGGLMQLPTSFTLMPGGAVAQQVPVQAIQVHQAPQQASPSRDSSTDLTQTSSSGTVTLPATIMTSSVPTTVGGHMMYPSPHAVMYAPTSGLGDGSLTVLNAFSQAPSTMQVSHSQVQEPGGVPQVFLTASSGTVQIPVSAVQLHQMAVIGQQAGSSSNLTELQVVNLDTAHSTKSE
- binding [1]: binds

B2: serum response factor (SRF), endogenous in rat cells, D3ZHH8 1-504 (protein)
chain: MLPSQAGAAAALGRGSALGGSLNRTPTGRPGGSGGTRGANGGRVPGNGAGLGPGRLEREAAAAAAPTAGALYSGSEGDSESGEEEELGAERRGLKRSLSEMELGVVVGGPEAAAAAAGGYGPVSGAVSGAKPGKKTRGRVKIKMEFIDNKLRRYTTFSKRKTGIMKKAYELSTLTGTQVLLLVASETGHVYTFATRKLQPMITSETGKALIQTCLNSPDSPPRSDPSTDQRMSATGFEEPDLTYQVSESDSSGETKDTLKPAFTVTNLPGTTSTIQTAPSTSTTMQVSSGPSFPITNYLAPVSASVSPSAVSSANGTVLKSTGSGPVSSGGLMQLPTSFTLMPGGAVAQQVPVQAIHVHQAPQQASPSRDSSTDLTQTSSSGTVTLPATIMTSSVPTTVGGHMMYPSPHAVMYAPTSGLADGSLTVLNAFSQAPSTMQVSHSQVQEPGGVPQVFLTAPSGTVQIPVSAVQLHQMAVIGQQAGSSSNLTELQVVNLDATHSTKSE
- binding [2]: binds

B3: serum response factor (SRF), endogenous in mouse cells and tissue (protein, UniProt Q9JM73 1-504)
chain: MLPSQAGAAAALGRGSALGGNLNRTPTGRPGGGGGTRGANGGRVPGNGAGLGQSRLEREAAAAAAPTAGALYSGSEGDSESGEEEELGAERRGLKRSLSEMELGVVVGGPEAAAAAAGGYGPVSGAVSGAKPGKKTRGRVKIKMEFIDNKLRRYTTFSKRKTGIMKKAYELSTLTGTQVLLLVASETGHVYTFATRKLQPMITSETGKALIQTCLNSPDSPPRSDPTTDQRMSATGFEEPDLTYQVSESDSSGETKDTLKPAFTVTNLPGTTSTIQTAPSTSTTMQVSSGPSFPITNYLAPVSASVSPSAVSSANGTVLKSTGSGPVSSGGLMQLPTSFTLMPGGAVAQQVPVQAIHVHQAPQQASPSRDSSTDLTQTSSSGTVTLPATIMTSSVPTTVGGHMMYPSPHAVMYAPTSGLADGSLTVLNAFSQAPSTMQVSHSQVQEPGGVPQVFLTAPSGTVQIPVSAVQLHQMAVIGQQAGSSSNLTELQVVNLDATHSTKSE
- binding [3]: binds
- binding [4]: binds

B4: recombinant SRF made as GST–SRF (protein, UniProt P11831 1-508)
chain: MLPTQAGAAAALGRGSALGGSLNRTPTGRPGGGGGTRGANGGRVPGNGAGLGPGRLEREAAAAAATTPAPTAGALYSGSEGDSESGEEEELGAERRGLKRSLSEMEIGMVVGGPEASAAATGGYGPVSGAVSGAKPGKKTRGRVKIKMEFIDNKLRRYTTFSKRKTGIMKKAYELSTLTGTQVLLLVASETGHVYTFATRKLQPMITSETGKALIQTCLNSPDSPPRSDPTTDQRMSATGFEETDLTYQVSESDSSGETKDTLKPAFTVTNLPGTTSTIQTAPSTSTTMQVSSGPSFPITNYLAPVSASVSPSAVSSANGTVLKSTGSGPVSSGGLMQLPTSFTLMPGGAVAQQVPVQAIQVHQAPQQASPSRDSSTDLTQTSSSGTVTLPATIMTSSVPTTVGGHMMYPSPHAVMYAPTSGLGDGSLTVLNAFSQAPSTMQVSHSQVQEPGGVPQVFLTASSGTVQIPVSAVQLHQMAVIGQQAGSSSNLTELQVVNLDTAHSTKSE
- binding (recombinant His6-PTEN): binds
